# No constants are given. Whether binding was seen depends on the method and setting. Binding calls can cover weak binding; strength is not graded here.
# Biological target: purified glycoprotein Ib (GPIb)
# Assay: overlapping vWf 10-mer L-peptide array on cellulose membrane probed with purified GPIb, anti-GPIb-HRP
row,binding,Binder
1,binds,EVLKYTLFQI [L-black]
2,binds,SHAYIGLKDR [L-brown]

# — US20170095421A1, “SYNTHETIC PLATELETS” (Maria I. C. Gyongyossy-Issa, priority 2006, published 2017)
